Test results reported in publication PMC9606361.
These are yes or no findings as the source states them, for the method shown.

Target: T1, EcNhaA WT-like triple mutant (A109T, Q277G, L296M) (Escherichia coli), P13738
T1 chain: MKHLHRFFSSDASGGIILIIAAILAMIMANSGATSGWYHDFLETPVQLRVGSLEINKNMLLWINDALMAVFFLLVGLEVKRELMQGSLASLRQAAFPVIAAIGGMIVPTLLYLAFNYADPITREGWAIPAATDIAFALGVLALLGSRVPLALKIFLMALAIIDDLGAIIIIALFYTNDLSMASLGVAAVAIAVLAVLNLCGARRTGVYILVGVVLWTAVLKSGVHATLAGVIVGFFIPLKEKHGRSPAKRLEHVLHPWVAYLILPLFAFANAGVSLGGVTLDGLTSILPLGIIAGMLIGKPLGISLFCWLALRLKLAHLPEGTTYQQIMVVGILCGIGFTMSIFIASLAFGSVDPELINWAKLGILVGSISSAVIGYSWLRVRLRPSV
Experiment: crystal structure; lipidic cubic phase (monoolein) crystals, 0.1 M MES pH 6.5, 0.1 M NaCl, 0.1 M CaCl2, 24-45% PEG 400, 20 °C; protein purified with cardiolipin; 2.2 Å; both purified
Details: remark: other sources report otherwise

binding: no binding
B1: EcNhaA WT-like triple mutant (A109T, Q277G, L296M), P13738 1-388 (protein)
chain: T1 chain
